# Assay results published in ChEMBL document CHEMBL4303122, “Identification of potential treatments for COVID-19 through artificial intelligence-enabled phenomic analysis of human cells infected with SARS-CoV-2” (2020).
# Counter-ions that a name gives are not always drawn. Whole data set: some 1,600 compounds, median “Hit score” near 0.13, cut for the highest 2% near 0.46. The list shows a part of the results.
# Tested on: SARS-CoV-2
# Assay: Antiviral activity against SARS-CoV-2 (USA-WA1/2020 strain) measured by imaging in HRCE cells at MOI 0.4 after 96 hrs (reported as hit score from 0-1 for on-disease vs off-disease activity: scores >0.6 considered hits)
# Format: functional, Homo sapiens
row,Structure (SMILES),Hit score
1,CCCCCCCCCCCCCCCCOP(=O)([O-])OCC[N+](C)(C)C [MILTEFOSINE],0.1709
2,Cc1ccc(S(=O)(=O)NC(=O)NN2CCCCCC2)cc1 [TOLAZAMIDE],0.157
3,CN1CCN(c2c(F)cc3c(=O)c(C(=O)O)cn4c3c2OCN4C)CC1 [MARBOFLOXACIN],0.2428
4,CC(C)(C)CC(C)(C)c1ccc(O)c(Cc2ccc(Cl)cc2Cl)c1 [CLOFOCTOL],0.3255
5,CNC[C@H](O)[C@@H](O)[C@H](O)[C@H](O)CO.O=C(O)c1ccc2nc(-c3cc(Cl)cc(Cl)c3)oc2c1 [TAFAMIDIS MEGLUMINE],0.09069
6,C[C@H]1C[C@@H]2[C@H]([C@@H](O)C[C@@]3(C)[C@H]2CC[C@]3(O)C(=O)COC(=O)CCC(=O)[O-])[C@@]2(C)C=CC(=O)C=C12.[Na+] [METHYLPREDNISOLONE SODIUM SUCCINATE],0.2909
7,C=CCSCC1Nc2cc(Cl)c(S(N)(=O)=O)cc2S(=O)(=O)N1 (centres undefined) [ALTHIAZIDE],0.1758
8,C=CC(=O)Nc1cccc(Oc2nc(Nc3ccc(N4CCN(C)CC4)cc3)nc3ccsc23)c1 [OLMUTINIB],0.2407
9,O=C(O)CCC/C=C\CC1C(O)CC(O)C1/C=C/C(O)COc1cccc(Cl)c1 (centres undefined) [CLOPROSTENOL],-0.03107
10,CC(C(=O)O)c1ccc(C(=O)c2ccccc2)s1 (centres undefined) [TIAPROFENIC ACID],0.1568
11,O=C1CCCC(=O)C1C(=O)c1ccc(C(F)(F)F)cc1[N+](=O)[O-] [NITISINONE],0.2981
12,CN(C)CC/C=C1/c2ccccc2COc2ccc(CC(=O)O)cc21 [OLOPATADINE],0.1069
13,c1ccc(CN(CC2=NCCN2)c2ccccc2)cc1 [ANTAZOLINE],0.1577
14,O=C(/C=C/c1ccc(O)c(O)c1)O[C@@H]1C[C@](O)(C(=O)O)C[C@@H](O)[C@H]1O [CHLOROGENIC ACID],0.1702
15,CCC[C@@]1(CCc2ccccc2)CC(O)=C([C@H](CC)c2cccc(NS(=O)(=O)c3ccc(C(F)(F)F)cn3)c2)C(=O)O1,0.04844
16,CC(=O)Nc1cc([As](=O)(O)O)ccc1O [ACETARSONE],0.1947
17,C#C[C@]1(O)C=C[C@H]2[C@@H]3CCC4=CC(=O)CC[C@@H]4[C@H]3CC[C@@]21CC [GESTODENE],0.1957
18,C=CCOC(Cn1ccnc1)c1ccc(Cl)cc1Cl (centres undefined) [ENILCONAZOLE],0.1595
19,CC(CN(C)C)CN1c2ccccc2Sc2ccccc21 (centres undefined) [METHYLPROMAZINE],0.07799
20,N=C(N)NCCN1CCCCCCC1 [GUANETHIDINE],0.1165
21,O=c1[nH]c2ccccc2n1C1CCN(CCCC(c2ccc(F)cc2)c2ccc(F)cc2)CC1 [PIMOZIDE],0.09909
22,CC(C)(C)C(=O)OCC(=O)[C@H]1CC[C@H]2[C@@H]3CCC4=CC(=O)CC[C@]4(C)[C@H]3CC[C@]12C [DESOXYCORTICOSTERONE PIVALATE],0.2223

row,Structure (SMILES),Hit score
1,CC(C)(C)[C@H]1CC[C@H](CC2=C(O)C(=O)c3ccccc3C2=O)CC1 [BUPARVAQUONE],0.02451
2,CCN(CC)CCOCCOC(=O)C(CC)(CC)c1ccccc1 [OXELADIN],0.254
3,CC(C)C[C@H](NC(=O)CNC(=O)c1cc(Cl)ccc1Cl)B1OC(=O)C(CC(=O)O)(CC(=O)O)O1 [IXAZOMIB CITRATE],-0.05941
4,C#C[C@]1(O)CC[C@H]2[C@@H]3CCC4=Cc5oncc5C[C@]4(C)[C@H]3CC[C@@]21C [DANAZOL],0.2899
5,CN(C)C(=O)Oc1ccc[n+](C)c1 [PYRIDOSTIGMINE],0.002406
6,Cc1cc(N)c2ccccc2[n+]1CCCCCCCCCC[n+]1c(C)cc(N)c2ccccc21,-0.1244
7,COc1cc(N2CCC(N3CCN(C)CC3)CC2)ccc1Nc1ncc(Cl)c(Nc2ccccc2P(C)(C)=O)n1 [BRIGATINIB],0.1463
8,CCOC(=O)[C@H](CCc1ccccc1)N[C@@H](C)C(=O)N1[C@H](C(=O)O)C[C@H]2CCCC[C@@H]21 [TRANDOLAPRIL],0.3202
9,COC(=O)Nc1nc2cc([S+]([O-])c3ccccc3)ccc2[nH]1 (centres undefined) [OXFENDAZOLE],0.1975
10,O=C(NC1CCN(CCc2c[nH]c3ccccc23)CC1)c1ccccc1 [INDORAMIN],0.08748
11,NC1CCN(c2nc3c(cc2F)c(=O)c(C(=O)O)cn3-c2ccc(F)cc2F)C1 (centres undefined) [TOSUFLOXACIN],0.08835
12,CCCOc1ccc(S(=O)(=O)N2CCN(CCO)CC2)cc1-c1nc2c(CCC)cn(CC)c2c(=O)[nH]1 [MIRODENAFIL],0.1469
13,C#CCN(C)[C@H](C)Cc1ccccc1 [SELEGILINE],0.3132
14,CCNC1=Nc2ccc(Cl)cc2C(C)(c2ccccc2)O1 (centres undefined) [ETIFOXINE],0.1787
15,CC[C@H]1[C@@H](O)[C@@H]2[C@H](CC[C@]3(C)[C@@H]([C@H](C)CCC(=O)O)CC[C@@H]23)[C@@]2(C)CC[C@@H](O)C[C@@H]12 [OBETICHOLIC ACID],0.5073
16,Cc1cnc(C(=O)N[C@H]2CCCCC/C=C\[C@@H]3C[C@@]3(C(=O)NS(=O)(=O)C3CC3)NC(=O)[C@@H]3C[C@@H](Oc4nc5ccccc5c5ccccc45)CN3C2=O)cn1,0.151
17,COc1c(N2CCNC(C)C2)c(F)cc2c(=O)c(C(=O)O)cn(C3CC3)c12 (centres undefined) [GATIFLOXACIN],0.1144
18,O=C(c1ccccc1)c1ccc2n1CCC2C(=O)O (centres undefined) [KETOROLAC],0.2356
19,CC(C)n1c(/C=C/C(O)CC(O)CC(=O)[O-])c(-c2ccc(F)cc2)c2ccccc21.[Na+] (centres undefined) [FLUVASTATIN SODIUM],0.0921
20,C#CCC(Cc1cnc2nc(N)nc(N)c2n1)c1ccc(C(=O)N[C@@H](CCC(=O)O)C(=O)O)cc1 (some centres undefined) [PRALATREXATE],0.06018
21,CCN(CC)CCOc1ccc2c(c1)C(=O)c1cc(OCCN(CC)CC)ccc1-2.Cl.Cl [TILORONE HYDROCHLORIDE],0.04106
22,O=C(C[S+]([O-])Cc1ccco1)NC/C=C\COc1cc(CN2CCCCC2)ccn1 (centres undefined) [LAFUTIDINE],0.2245

# Five entries from above, set out differently:
row | Structure (SMILES) | Hit score
11 | NC1CCN(c2nc3c(cc2F)c(=O)c(C(=O)O)cn3-c2ccc(F)cc2F)C1 (centres undefined) [TOSUFLOXACIN] | 0.08835
16 | Cc1cnc(C(=O)N[C@H]2CCCCC/C=C\[C@@H]3C[C@@]3(C(=O)NS(=O)(=O)C3CC3)NC(=O)[C@@H]3C[C@@H](Oc4nc5ccccc5c5ccccc45)CN3C2=O)cn1 | 0.151
19 | CC(C)n1c(/C=C/C(O)CC(O)CC(=O)[O-])c(-c2ccc(F)cc2)c2ccccc21.[Na+] (centres undefined) [FLUVASTATIN SODIUM] | 0.0921
20 | C#CCC(Cc1cnc2nc(N)nc(N)c2n1)c1ccc(C(=O)N[C@@H](CCC(=O)O)C(=O)O)cc1 (some centres undefined) [PRALATREXATE] | 0.06018
21 | CCN(CC)CCOc1ccc2c(c1)C(=O)c1cc(OCCN(CC)CC)ccc1-2.Cl.Cl [TILORONE HYDROCHLORIDE] | 0.04106

# (cont.)

row,Structure (SMILES),Hit score
1,CN(C)CC(c1ccc(O)cc1)C1(O)CCCCC1 (centres undefined) [DESVENLAFAXINE],0.0828
2,NC(=O)[C@@H]1CCCN1C(=O)[C@H](Cc1c[nH]cn1)NC(=O)[C@@H]1CCC(=O)N1 [PROTIRELIN],0.04354
3,C[C@]12C=CC(=O)N[C@@H]1CC[C@@H]1[C@@H]2CC[C@]2(C)[C@@H](C(=O)Nc3cc(C(F)(F)F)ccc3C(F)(F)F)CC[C@@H]12 [DUTASTERIDE],0.3162
4,Cc1ccc(/C=C2\CNC/C(=C\c3ccc(C)cc3)C2=O)cc1.Cl,0.05741
5,CCC(=O)OCC(=O)[C@@]1(OC(=O)CC)[C@H](C)C[C@H]2[C@H]3[C@H]([C@@H](O)C[C@@]21C)[C@@]1(C)C=CC(=O)C=C1C[C@H]3Cl [ALCLOMETASONE DIPROPIONATE],0.08294
6,C[C@H]1C[C@@H]2[C@H]([C@@H](O)C[C@@]3(C)[C@H]2CC[C@]3(O)C(=O)CO)[C@@]2(C)C=CC(=O)C=C12 [METHYLPREDNISOLONE],0.1629
7,O=C1NC(=O)C(c2ccccc2)(c2ccccc2)N1 [PHENYTOIN],0.2216
8,CCN[C@@H]1C[C@H](N)[C@@H](O[C@H]2OC(CN)=CC[C@H]2N)[C@H](O)[C@H]1O[C@H]1OC[C@](C)(O)[C@H](NC)[C@H]1O [NETILMICIN],0.12
9,CC[C@H](C)C(=O)O[C@H]1C[C@H](O)C=C2C=C[C@H](C)[C@H](CC[C@@H](O)C[C@@H](O)CC(=O)O)[C@H]21 [PRAVASTATIN],0.1363
10,CN(C)C/C=C/C(=O)Nc1cc2c(Nc3ccc(F)c(Cl)c3)ncnc2cc1O[C@H]1CCOC1 [AFATINIB],-0.1413
11,C=CCOc1ccccc1OCC(O)CNC(C)C (centres undefined) [OXPRENOLOL],0.08363
12,O=C(/C=C/c1cccc(S(=O)(=O)Nc2ccccc2)c1)NO [BELINOSTAT],-0.02011
13,CC(C)(C)c1cc(NC(=O)Nc2ccc(-c3cn4c(n3)sc3cc(OCCN5CCOCC5)ccc34)cc2)no1 [QUIZARTINIB],-0.1028
14,COc1cc2nc(N3CCN(C(=O)C4COc5ccccc5O4)CC3)nc(N)c2cc1OC (centres undefined) [DOXAZOSIN],0.04875
15,CNC(=O)c1ccc(N2C(=S)N(c3ccc(C#N)c(C(F)(F)F)c3)C(=O)C2(C)C)cc1F [ENZALUTAMIDE],0.1121
16,CCN(CC)C(=O)Nc1ccc(OCC(O)CNC(C)(C)C)c(C(C)=O)c1 (centres undefined) [CELIPROLOL],0.5089
17,CCN(CC)CCOCCOC(=O)C1(c2ccccc2)CCCC1 [CARBETAPENTANE],0.04213
18,CC#CCn1c(N2CCC[C@@H](N)C2)nc2c1c(=O)n(Cc1nc(C)c3ccccc3n1)c(=O)n2C [LINAGLIPTIN],0.0767
19,CC(C)(CO)[C@@H](O)C(=O)NCCC(=O)O [PANTOTHENIC ACID],0.1559
20,CCN(CCCCOC(=O)c1ccc(OC)c(OC)c1)C(C)Cc1ccc(OC)cc1 (centres undefined) [MEBEVERINE],0.1457
